Source: article PMC6274353, “The Blood-Brain Barrier Permeability of Lignans and Malabaricones from the Seeds of Myristica fragrans in the MDCK-pHaMDR Cell Monolayer Model” (Molecules, 2016)

Assay: bidirectional transport across the MDCK-pHaMDR cell monolayer (in vitro BBB model)
Conditions: dog, MDCK-MDR1, pH 7.35
Procedure: The MDCK-pHaMDR cells were seeded at a density of about 8 × 10^4 cells/mL on the 12-well Transwell® plates. After an eight-day culture, the cells reached confluence and differentiation for the transport study.
On the 8th day, the monolayers were washed twice and shaken at 55 rpm for 30 min with HBSS at 37 °C. Then, the TEER was measured with an epithelial volt-ohm meter (EVOM; World Precision Instrument) to examine the monolayer's integrity. Only those with the TEER values above 1000 Ω·cm^2 were qualified for the transport.
The bidirectional transport assay was initiated by adding a test compound to either the apical (0.5 mL for apical to basolateral transport, A→B) or the basolateral (1.5 mL for basolateral to apical transport, B→A) side. After shaking at 55 rpm and 37 °C for a certain time, samples (A→B: 400 µL from the apical side and 1300 µL from the basolateral side; B→A: 450 µL from the apical side and 450 µL from the basolateral side) were collected, immediately frozen, lyophilized and preserved below –20 °C before analysis.
Papp of each compound was calculated based on the following equation: (1) Papp = (ΔQ/Δt)/(AC0) (cm/s) where ΔQ/Δt is the appearance rate of the test compound at the receiver side (µmol/s), C0 is the initial concentration of the test compound at the donor side (µM), and A is the membrane surface area (cm^2). […]

Compound: CC(C)NCC(O)COc1ccc(CC(N)=O)cc1 (stereo not shown) [atenolol, reference compound]
- Papp: 0.472 ± 0.017 ×10⁻⁶ cm/s
